Measured values published in PMC3095777, “Structure and Activity of a Novel Archaeal β-CASP Protein with N-Terminal KH Domains” (Structure(London, England:1993), 2011).
Results are given in words; binding and its absence hold for the method and conditions named. Some entries that bind do so weakly or less than the wild type.

T1: MTH1203 (Methanothermobacter thermautotrophicus …, UniProt O27271 1-636)
T1 sequence: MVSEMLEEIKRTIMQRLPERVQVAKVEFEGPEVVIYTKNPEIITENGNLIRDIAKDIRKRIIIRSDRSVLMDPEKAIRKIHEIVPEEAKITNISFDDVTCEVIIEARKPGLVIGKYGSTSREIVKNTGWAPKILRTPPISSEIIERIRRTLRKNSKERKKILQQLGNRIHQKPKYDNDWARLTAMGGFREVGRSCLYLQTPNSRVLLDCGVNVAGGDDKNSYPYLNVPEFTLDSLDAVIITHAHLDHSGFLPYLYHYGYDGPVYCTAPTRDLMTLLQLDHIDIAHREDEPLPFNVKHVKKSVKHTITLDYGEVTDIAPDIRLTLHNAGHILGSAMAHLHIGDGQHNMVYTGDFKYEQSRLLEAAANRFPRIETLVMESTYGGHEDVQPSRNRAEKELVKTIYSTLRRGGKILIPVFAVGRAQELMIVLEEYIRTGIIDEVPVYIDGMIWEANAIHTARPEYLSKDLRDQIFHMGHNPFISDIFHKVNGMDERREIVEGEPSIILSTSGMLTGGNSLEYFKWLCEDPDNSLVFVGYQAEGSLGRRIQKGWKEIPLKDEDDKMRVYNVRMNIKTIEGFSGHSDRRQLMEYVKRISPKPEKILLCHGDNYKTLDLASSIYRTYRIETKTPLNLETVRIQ

B1: MTH1203 (enzyme, Methanothermobacter thermautotrophicus, UniProt O27271 1-636, looked up)
chain: T1 sequence
notes: MTH1203 from Methanothermobacter thermautotrophicus strain delta H; mth1203 gene amplified from genomic DNA, cloned into pETYSBLIC-3C; predicted molecular mass 73.1 kDa; residues up to 636 named; Dimer at 0.5-0.7 M NaCl or KCl, monomer at 1 M NaCl; full cloning and purification details are in the Supplemental Experimental Procedures; also called β-CASP metallo-β-lactamase family nuclease; source: …
B2: exosome core, formed by the MTH682 and MTH683 proteins (complex, UniProt O26778 1-271; O26779 1-240)
chain 1: MVNKMDIIPEITRKSITDLINNKERIDGRSLHEFRDISIETGVISKAEGSSRVKLGNTQIIVGVKPQIGEPFPDTPEMGVILTNSELLPMASPTFEPGPPDERSVELSRVVDRCIRESRMIDLEKLCIIEGSKVWMLFLDLHIIDYDGNLFDAAVLATVAALLDTRIPAAEVEDGEVVINREKMQPLPVNRKALMCTFAKIGNEIVLDPSLEEEDILTARISIGVTEEGSICAMQKGGEGPLTRDDVLKAVSIAVEKVPQLIEYLDKSMTP
chain 2: MITIITQDQLKTSPSVREDGRAFDELRPLKIEAGILERADGSSYLEFGGNKILVAVYGPREAQIRKLQRPDRAVIRCRYNMAPFSVEERKRPGPDRRSVEISKITAEALRPALILEKFPRSVIDVFIEVLEAEGGTRCAGITAASVALADAGIPMRDMVVACAAGKVGDQVVLDLSEEEDKEGQADVPVAILPRTREITLLQSDGNLTPEEFERALDLAVEGCLRIHEVQKEALRKRYGE

Tests used:
MTH1203 [1] = target: T1, MTH1203; experiment: crystal structure; space group P4(1)2(1)2, 3.1 Å, two molecules in the asymmetric unit; His-tag removed; dimer assembly analysed with PISA; both purified
MTH1203 [2] = target: T1, MTH1203; experiment: SEC-MALS; MTH1203 mixed with the exosome core (Figure S7); both purified

Binder | binding (MTH1203 [1]) | binding (MTH1203 [2])
B1 | binds | –
B2 | – | no binding
